PubChem BioAssay AID1508588 | Peter MacCallum Cancer Centre | 2020
Here is an unselected part of about 18,000 reagents. 790 of all reagents (4.4%) count as active. 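Calls rest on a combination of fold-change classes in drug and vehicle arms, not all shown here.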

Purpose: 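Knock-downs boosting vemurafenib effects on melanoma cell growth or lactate release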 (primary screen)
System: human WM266.4 melanoma cells (BRAF V600 mutant)
Reagent: siRNA pool against human genes, 40 nM
Time to read-out: 96 h from transfection to read-out
Treatment: vemurafenib 300 nM (about IC25), added 48 h after transfection, for 48 h; comparison arm got DMSO vehicle only
Detection: 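Cell gain (DAPI nuclei at end minus before drug, mean of two replicates) and medium lactate by absorbance per cell, both as ratio to non-targeting siRNA, also grouped into fold-change classes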
Scale: cell gain with vemurafenib: higher = more cell gain than with non-targeting siRNA; lactate per cell with vemurafenib: higher = more lactate made per cell
Call rule: 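Enhancement is called by pairing each knock-down's vehicle-arm and drug-arm fold-change classes for viability or glycolysis; which class combinations qualify is not given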
Calls: active = enhances vemurafenib effect; inactive = no enhancement seen

| target | PubChem SID | cell gain with vemurafenib | lactate per cell with vemurafenib | activity call |
| --- | --- | --- | --- | --- |
| PGF | SID152151627 | 0.59 | 1.4 | inactive |
| CACNG1 | SID152151306 | 1.1 | 1.06 | inactive |
| SLC2A7 | SID152149032 | 0.81 | 0.7 | inactive |
| RNF115 | SID134312099 | 0.73 | 0.6 | inactive |
| KAT7 | SID134321587 | 0.19 | 1.48 | inactive |
| HSPH1 | SID134310695 | 0.43 | 1.78 | inactive |
| TMEM179 | SID134329535 | 0.7 | 0.42 | inactive |
| OR8K3 | SID152149729 | -0.02 | 2.31 | inactive |
| OR6N1 | SID152152629 | 0 | 2.11 | inactive |
| CCDC28B | SID152151158 | 0.63 | 1.02 | inactive |
| ENPP1 | SID134310088 | 0.27 | 0.58 | inactive |
| AXIN2 | SID135621652 | 0.8 | 0.22 | inactive |
| SEZ6 | SID135621500 | 0.78 | 1.4 | inactive |
| FOXJ1 | SID135621919 | 0.77 | 0.9 | inactive |
| FTO | SID152149008 | 1.19 | 0.98 | inactive |
| OR8K1 | SID134329818 | 0.68 | 0.38 | inactive |
| MRPS24 | SID135622552 | 0.69 | 1.01 | inactive |
| RAB11FIP1 | SID152151939 | 0.77 | 0.46 | active |
| SLFN5 | SID152147471 | 1.03 | 0.4 | inactive |
| CD164L2 | SID152147399 | 0.24 | 1.27 | inactive |
| TLR10 | SID152147221 | 0.38 | 1.08 | inactive |
| TSEN34 | SID152148220 | 0.37 | 0.8 | inactive |
| NCOA7 | SID134322697 | 0.22 | 1.78 | inactive |
| CTDSPL2 | SID135621540 | 0.54 | 1.4 | inactive |
| FREM2 | SID152152904 | 0.3 | 0.68 | inactive |
| TMEM68 | SID134319470 | 0.85 | 0.44 | inactive |
| FANCF | SID134318381 | 0.76 | 0.83 | inactive |
| WDR86 | SID152150712 | 0.99 | 0.7 | inactive |
| LOC90462 (retired record) | SID152149874 | 0.3 | 0.45 | active |
| KIF26A | SID135624267 | 0.41 | 1.92 | inactive |
| CATSPERG | SID134318197 | 0.41 | 1.06 | inactive |
| CCR1 | SID152153480 | 0.52 | 0.26 | active |
| MVK | SID56479115 | 0.9 | 0.67 | inactive |
| NCAPD2 | SID134324802 | 0.75 | 0.66 | active |
| ORC2 | SID152155201 | 0.26 | 1.38 | inactive |
| ELK3 | SID134314893 | 0.7 | 0.63 | inactive |
| DERL2 | SID152151329 | 0.06 | 2.22 | inactive |
| TFG | SID152147395 | 0.71 | 1.11 | inactive |
| TAF11 | SID134316440 | 0.95 | 0.72 | inactive |
| OR7D4 | SID152153902 | 0.71 | 1.26 | inactive |
| PRR16 | SID134324063 | 0.46 | 0.98 | inactive |
| CNKSR1 | SID135622272 | -0.16 | 4.47 | inactive |
| VMO1 | SID134322802 | 0.86 | 0.6 | inactive |
| HGS | SID134320810 | 0.48 | 0.95 | inactive |
| OR2T1 | SID152154227 | 0.35 | 1.2 | inactive |
| SNTG1 | SID152153798 | 0.15 | 0.45 | active |
| LRRC66 | SID152148211 | 0.82 | 1.15 | inactive |
| HEATR9 | SID152152171 | 0.2 | 1.96 | inactive |
| ANGPTL8 | SID135622619 | 0.5 | 0.55 | inactive |
| KIR3DX1 | SID152154268 | 0.6 | 0.86 | inactive |
| ATG4C | SID152155275 | 0.16 | 1.27 | inactive |
| OVOS2P | SID135623534 | 0.27 | 0.98 | inactive |
| FMO3 | SID152147349 | 0.67 | 0.82 | inactive |
| DCLK1 | SID56478913 | 0.57 | 1.35 | inactive |
| GARRE1 | SID135624083 | 0.75 | 0.74 | inactive |
| EP300 | SID152156718 | 0.2 | 1.96 | inactive |
| SLC25A28 | SID152152427 | 0.26 | 1.45 | inactive |
| PIGM | SID152152391 | 0.52 | 0.99 | inactive |
| IMMP2L | SID152147887 | 0.38 | 0.71 | inactive |
| CSNK1G1 | SID152156369 | 0.72 | 0.93 | inactive |
| AHCY | SID134314330 | 0.14 | 1.92 | inactive |
| MOXD1 | SID152149278 | 0.91 | 0.46 | inactive |
| TMEM236 | SID135624562 | 0.93 | 0.94 | inactive |
| FOLR3 | SID152150279 | 0.59 | 0.87 | inactive |
| TEKT3 | SID134317731 | 0.76 | 0.54 | inactive |
| TXNRD1 | SID152148840 | 0.43 | 0.73 | inactive |
| SEC11C | SID152155300 | 0.6 | 1.24 | inactive |
| CYB561D2 | SID135623371 | 0.72 | 0.69 | inactive |
| CTSG | SID135621082 | 0.73 | 0.69 | inactive |
| ZNF146 | SID135623790 | 0.95 | 0.6 | inactive |
| SAPCD2 | SID134321698 | 1.05 | 0.88 | inactive |
| PPP1R18 | SID135624495 | 0.59 | 0.64 | inactive |
| OR6C70 | SID134329939 | 0.4 | 0.86 | inactive |
| HOXD3 | SID134321285 | 0.67 | 1.11 | inactive |
| GZMA | SID135621093 | 0.68 | 0.96 | inactive |
| OR10G8 | SID152151217 | 0.22 | 1.02 | inactive |
| SLC37A1 | SID152151287 | 0.3 | 1.16 | inactive |
| TMCO5A | SID134320374 | 0.55 | 1.6 | inactive |
| HSPB9 | SID134313843 | 0.83 | 0.65 | inactive |
| NLE1 | SID135623037 | 0.52 | 1.38 | inactive |
| PAN2 | SID134324797 | 0.94 | 0.89 | inactive |
| SPOUT1 | SID134315287 | 0.33 | 1.03 | inactive |
| LINC00477 | SID134319871 | 0.13 | 0.2 | inactive |
| VCL | SID152147558 | 0.46 | 1.32 | inactive |

Limited to “lactate per cell with vemurafenib”, for 5 of the entries above:
FTO [SID152149008]	0.98
OR8K1 [SID134329818]	0.38
MRPS24 [SID135622552]	1.01
RAB11FIP1 [SID152151939]	0.46
SLFN5 [SID152147471]	0.4
